# Measurements as given in PubChem BioAssay AID651640 (Broad Institute, 2012).
# Out of some 350,000 compounds screened, about 6,000 (1.7%) were called active. Inconclusive means that the source gave no clear call. Such entries were picked first, then a sample of the others. Cut-off read from the data, not from the text of the source: active = CPE inhibition above about 20% (passing the limit was not always enough); inconclusive = no clear call, values can overlap the other calls; tested in BHK-21 cells. Where a structure was tested more than once in an assay, its records may differ in their call.
# Experiment: protection of cells from dengue 2 killing – plate reader, single concentration, primary screen (AID 651640);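 note: 0% = median of neutral control wells and 100% = median of positive control wells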
# Details: DENV2-infected cells, cytopathic effect rescue, at 9.99 µM, active compounds read high
row,SMILES,CPE inhibition
1,COC(=O)C[C@H]1CC[C@@H]2[C@H](COC[C@H](O)CN2CCC(F)(F)F)O1,inconclusive: 40.9%
2,O=C(C[C@@H]1C[C@@H]2c3cc(NC(=O)Nc4ccc(C(F)(F)F)cc4)ccc3O[C@@H]2[C@@H](CO)O1)NCc1ccccn1,inconclusive: 22%
3,COc1ccc(CN(C)C(C)C(=O)N(C)CC(=O)Nc2ccc(C)cc2)cc1F (centres undefined),inconclusive: 47.9%
4,S=C(NC1CC1)N1CCCc2ccccc21,active: 53.7%
5,CC=Cc1ccc2n(c1=O)C[C@@H]1[C@@H](CO)[C@H](C(=O)N(C)C)[C@H]2N1CC1CCCC1 (mixture of isomers),inactive: 0.579%
6,C[C@@H]1CN([C@@H](C)CO)C(=O)c2cc(-c3ccc(C(=O)N(C)C)cc3)cnc2O[C@H]1CN(C)C(=O)C1CC1,inactive: -5.01%
7,COC(=O)C[C@@H]1C=C[C@@H](NS(=O)(=O)c2ccc(OC)cc2)[C@@H](CO)O1,active: 23.3%
8,CO[C@H]1CN(C)C(=O)c2cc(NC(=O)Nc3ccccc3)ccc2OC[C@@H](C)NC[C@@H]1C,active: 25.7%
9,CCOC(=O)CSc1[nH]c2cc(OC)ccc2c1[N+](=O)[O-],active: 24.2%
10,Cc1c(C(=O)NCc2cccc([N+](=O)[O-])c2)sc(=O)n1Cc1ccc(F)cc1,inconclusive: 21.1%
11,O=C(Nc1ccc2c(c1)[C@@H]1C[C@@H](CC(=O)N3CCCCC3)O[C@H](CO)[C@@H]1O2)Nc1ccccc1F,inactive: -2.84%
12,Cc1ccc(S(=O)(=O)N(C)C[C@@H]2Oc3ncc(/C=C/c4ccccc4)cc3C(=O)N([C@H](C)CO)C[C@@H]2C)cc1,active: 23.5%
13,CCCNC(=O)C[C@H]1CC[C@H]2[C@@H](COC[C@H](O)CN2C(=O)Nc2ccccc2OC)O1,active: 20.9%
14,Cc1ccc(Cc2c(C)nc3nc(SCC(=O)NCCCN4CCCCC4)nn3c2C)cc1,inconclusive: 32.3%
15,C[C@H](CO)N1C[C@H](C)[C@H](CN(C)C)Oc2ncc(C#CC3(O)CCCC3)cc2C1=O,inconclusive: 23.9%
16,O=C(O)Cn1c2c(c3ccccc31)CSc1ccc(Cl)cc1-2,inactive: -2.88%
17,COCCCN1C(=O)C(CC(=O)NCc2cccs2)CC(C(=O)N(C)C)=C1C (centres undefined),inconclusive: 23.1%
18,Cc1ccc(C)c(OCCCCN2CCCCC2)c1,active: 55.2%
19,CCCNC(=O)Nc1ccc2c(c1)OC[C@@H](C)N(CCC)C[C@H](C)[C@@H](OC)CN(C)C2=O,inconclusive: 22.2%
20,COC(=O)Cc1ccc(OC2(C)CCN(Cc3csc4ccccc34)C2)cc1 (centres undefined),active: 25.7%
21,O=C(C[C@@H]1C[C@H]2c3cc(NC(=O)Nc4ccc(C(F)(F)F)cc4)ccc3O[C@H]2[C@@H](CO)O1)NCc1ccc(Cl)cc1,inconclusive: 22.6%
22,Cc1ccc(S(=O)(=O)N[C@H]2CC[C@H](CC(=O)O)O[C@@H]2CO)cc1,inactive: -2.59%
23,COc1ccc2c3c(n(C)c2c1)[C@@H](CO)N(CC1CC1)CC31CN(S(=O)(=O)c2cccs2)C1,inactive: 15.2%
24,COc1ccc(OC)c(N(CC(=O)NCC2CCCO2)S(=O)(=O)c2ccccc2)c1 (centres undefined),inconclusive: 53.7%
25,O=C(Nc1cccc(O)c1)c1cnn2cccnc12,inactive: 5.72%

row,SMILES,CPE inhibition
1,O=C(O)c1cccc(-n2cccc2/C=C/[N+](=O)[O-])c1,inactive: 1.8%
2,CCN(C(=O)CSc1nnc(C)n1-c1ccc(C)cc1)c1c(N)n(Cc2ccccc2)c(=O)[nH]c1=O,inactive: 2.59%
3,COc1ccc(OC)c(S(=O)(=O)NC(C)c2ccc(-n3ccnc3)cc2)c1 (centres undefined),inconclusive: 42.4%
4,O=C(CSc1nnc(-c2ccccc2F)o1)OCc1ccccc1,inconclusive: 21.2%
5,CC1(c2ccc(OC(F)F)cc2)NC(=O)N(CC(=O)c2ccc3c(c2)OCO3)C1=O (centres undefined),inconclusive: 23.5%
6,COC(=O)c1ccc(NC(=O)CCc2nnc3ccc(N4CCC5(CC4)OCCO5)nn23)cc1,inconclusive: 20.4%
7,Cc1cc(-c2onc(C)c2C(=O)Oc2ccc(Cl)cc2)no1,active: 72.6%
8,CCC(=O)N1CCN(c2ccc(NC(=S)NC(=O)C(C)C)cc2)CC1,inconclusive: 21.7%
9,C/C(=N\NC(=O)c1ccc2c(c1)OCO2)c1ccc(O)cc1,inconclusive: 34.4%
10,CCCNC(=O)N1CC2(CN(Cc3ccccn3)C2)c2c(n(C)c3cc(OC)ccc23)[C@H]1CO,inconclusive: 22.7%
11,CN1C(=O)c2cc(NC(=O)C3CCC3)ccc2OC[C@H]2O[C@H](CC(=O)NCC3CCCCC3)CC[C@H]21,inconclusive: 35.1%
12,CCC(=O)N1CC2(C1)CN(C(=O)Nc1ccccc1F)[C@@H](CO)c1c2c2ccc(OC)cc2n1C,inactive: 9.25%
13,O=C(C[C@H]1CC[C@@H]2[C@H](COC[C@H](O)CN2C(=O)c2ccccc2)O1)Nc1nccs1,inactive: -3.07%
14,CCCCC1(C)NC(=S)N2N1C(=S)NC2(C)CCCC (centres undefined),inconclusive: 23.5%
15,Fc1ccc(-c2cc(C(F)(F)C(F)F)[nH]n2)cc1,inconclusive: 28.8%
16,COc1ccc2c3c(n(C)c2c1)[C@@H](CO)N(C(=O)c1ccccn1)CC31CCN(C(C)=O)CC1,inconclusive: 21.3%
17,CC(C)N(Cc1ccccc1)C(=O)COC(=O)C1CCN(c2ccc(C(F)(F)F)cn2)CC1,inconclusive: 24.2%
18,N#C[C@@H]1[C@@H](c2ccccc2C2=CCCCC2)[C@H](CO)N1C(=O)NC1CCCC1,active: 73.3%
19,CC(C)C#Cc1cnc2c(c1)C(=O)N([C@@H](C)CO)C[C@@H](C)[C@H](CN(C)S(=O)(=O)c1cn(C)cn1)O2,inconclusive: 22.8%
20,CC=Cc1ccc2n(c1=O)C[C@@H]1[C@@H](CO)[C@H](C(=O)NCC(F)(F)F)[C@H]2N1C(=O)C1CCC1 (mixture of isomers),inconclusive: 21.3%
21,O=C(N/C(=C/c1ccco1)C(=O)N1CCOCC1)c1ccc([N+](=O)[O-])cc1,inactive: -1.38%
22,COC(=O)c1c(-c2ccc(OC)cc2)c2c(c3c4cc(OC)ccc4n(S(=O)(=O)c4ccc(F)cc4)c13)C(=O)N(C)C2,active: 44.7%
23,O=C(CNC(=O)c1ccc(Cl)cc1Cl)OCn1nnc2ccccc2c1=O,inconclusive: 28.3%
24,CC(=O)N1[C@@H]2Cn3c(ccc(-c4cccnc4)c3=O)[C@H]1[C@@H](C(=O)N1CCc3ccccc3C1)[C@@H]2CO,inactive: 1.06%
25,C[C@H](CO)N1C[C@H](C)[C@H](CN(C)S(=O)(=O)c2ccc(Cl)cc2)Oc2ccc(NS(=O)(=O)c3ccc(F)cc3)cc2C1=O,inconclusive: 20.6%

row,SMILES,CPE inhibition
1,COc1ccc(N2C(=O)CC(Cc3ccccc3OC)C2=O)cc1 (centres undefined),inconclusive: 20.2%
2,O=C(Nc1ccccc1Cl)NC1(C(=O)NCc2cccnc2)CCCCC1,inconclusive: 23.2%
3,Cn1cnc(S(=O)(=O)N2CC[C@@H]3[C@H]2c2cc(-c4cccc(F)c4)ccc2N[C@@H]3CO)c1,inconclusive: 33.6%
4,CC(C)C[C@H](NC(=O)N1c2ccccc2NC(=O)[C@@H]1C(C)C)C(=O)N[C@@H](Cc1ccccc1)C(=O)O,inconclusive: 37.8%
5,C[C@@H]1CCCCO[C@@H](CN(C)C(=O)Nc2ccc3c(c2)OCO3)[C@@H](C)CN([C@@H](C)CO)C(=O)c2cc(NC(=O)Cc3ccccc3)ccc2O1,inactive: 11.6%
6,CNC[C@@H]1OCc2ccccc2-c2ccccc2C(=O)N([C@@H](C)CO)C[C@@H]1C,active: 33.1%
7,O=C(NN=Cc1ccccc1O)C(=O)Nc1ccc(F)cc1,inconclusive: 23.9%
8,O=C(c1ccc(F)cc1)C1CCN(Cc2ccc(F)cc2)CC1,inconclusive: 23.4%
9,COCC(=O)Nc1ccc2c(c1)OC[C@H](C)N(CC1CCCCC1)C[C@@H](C)[C@@H](OC)CN(C)C2=O,inactive: -2.11%
10,CC[n+]1c(C)cc2c(sc3ccccc32)c1C,inactive: -1.78%
11,CN1CCN(CCCNCc2cn(CCC#N)c3ccccc23)CC1,inconclusive: 23.3%
12,COc1ccc(S(=O)(=O)Nc2ccc3c(c2)C(=O)N([C@@H](C)CO)C[C@H](C)[C@H](CN(C)Cc2ccc(Oc4ccccc4)cc2)O3)cc1,inconclusive: 22.8%
13,FC(F)(F)c1ccccc1CN1CCC(Cc2ccccc2)CC1,inactive: -0.0105%
14,CO[C@H]1CN(C)C(=O)c2cc(NC(=O)c3ccccc3F)ccc2OC[C@H](C)N(C(C)=O)C[C@@H]1C,inactive: -1.5%
15,Cc1ccc(SCCN2CCC(C(C)(C)C)CCC2=O)cc1 (centres undefined),inconclusive: 56.7%
16,Cc1ccc(NS(=O)(=O)c2cccc(C(=O)NC3CCN(Cc4ccccc4)CC3)c2)cc1,inactive: -1.06%
17,Cc1ccc(N=Nc2ccc(O)cc2)c(Br)c1,inactive: 0.0525%
18,Cc1cc(NC(=O)CCN2CCCCC2)ccc1Br,inconclusive: 25.2%
19,NC(=O)[C@@H]1CC2(CC(c3cccc(NC(=O)COc4ccc(Cl)cc4)c3)=NO2)CN1C(=O)COc1ccc(Cl)cc1 (some centres undefined),inconclusive: 24.3%
20,CCOC(=O)CCc1c(C)c2ccc3c(c2oc1=O)CN(CCCO)CO3,inconclusive: 20.4%
21,Cc1ccc(S[C@@H](CCN2CC[C@H](NC(=O)OCc3ccccc3)CCC2=O)c2ccccc2)cc1,inconclusive: 40.2%
22,C(=NN1CCCCCC1)c1ccccc1,inconclusive: 24.4%
23,C[C@H](CO)N1C[C@H](C)[C@H](CN(C)CC2CCCCC2)OCCCC[C@H](C)Oc2ccc(NC(=O)CCCCCC(=O)Nc3ccccc3N)cc2C1=O,inactive: 7.81%
24,O=C1[C@@H](Oc2ccccc2)[C@@H](c2ccncc2)N1c1ccncc1,active: 27.9%

# 3 structures from above, sorted by heavy-atom count, smallest number first.
row,SMILES,CPE inhibition
10,CC[n+]1c(C)cc2c(sc3ccccc32)c1C,inactive: -1.78%
24,O=C1[C@@H](Oc2ccccc2)[C@@H](c2ccncc2)N1c1ccncc1,active: 27.9%
2,O=C(Nc1ccccc1Cl)NC1(C(=O)NCc2cccnc2)CCCCC1,inconclusive: 23.2%

# Of the compounds above, these contain a thiophene ring, fused or not:
row,SMILES,CPE inhibition
17,COCCCN1C(=O)C(CC(=O)NCc2cccs2)CC(C(=O)N(C)C)=C1C (centres undefined),inconclusive: 23.1%
20,COC(=O)Cc1ccc(OC2(C)CCN(Cc3csc4ccccc34)C2)cc1 (centres undefined),active: 25.7%
23,COc1ccc2c3c(n(C)c2c1)[C@@H](CO)N(CC1CC1)CC31CN(S(=O)(=O)c2cccs2)C1,inactive: 15.2%
10,CC[n+]1c(C)cc2c(sc3ccccc32)c1C,inactive: -1.78%
